# Measurements taken from the supplement of paper PMC8728848.
# The list shows a part of the results.
# B1: Epa20 (Candida glabrata) (protein)
# chain: MGSSHHHHHHSSGLVPRGSHMASSNIPNNYPLGCSNKYSGHLPGLKMELYSYNYVNPRHPDPQNPGKLDQLYDPNLLGTYECFDSSYKDINYPRVGYKSKTLIGRSDGVSGILNFNFVPPWGCMPQKGQLPPAYNFKSNITLSNFTMILFGYFKPKISGNHIFSLHGDDLIYLNFGAGNAFDCCRQESSADNFGNYQAFSLWGINWEKKTLTVYLDMNTYYPIRIFYNNRDYQAIFNFSFKTEFDSSPVIDFQDYFFFLRDIDGGCPGEV
# How the values were obtained:
# Assay in all cases: glycan array binding signal (z-score within array); higher = stronger binding
# Details in all cases: glycan notation: IUPAC condensed, linker removed
# [1] = biological target: Glc(b1-4)Glc
# Method in brief: (§1)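 Glycan array data came from 3228 arrays in the Consortium for Functional Glycomics database, and only arrays with an available protein sequence were kept. Glycan names were put into IUPAC-condensed notation, and columns mapping to the same glycan were averaged. The binding signal is a within-array Z-score, averaged across arrays of one protein sequence run at different concentrations or buffers and across linkers. A negative Z-score can be read as non-binding.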
# [2] = biological target: Glc(b1-6)Glc
# Method in brief: as §1
# [3] = biological target: GlcA(b1-3)Gal
# Method in brief: as §1
# [4] = biological target: GlcA(b1-3)GlcNAc
# Method in brief: as §1
# [5] = biological target: GlcA(b1-6)Gal
# Method in brief: as §1
# [6] = biological target: GlcA3S(b1-3)Gal(b1-4)GlcNAc(b1-2)Man
# Method in brief: as §1
# [7] = biological target: GlcA3S(b1-3)Gal(b1-4)GlcNAc(b1-3)Gal(b1-4)Glc
# Method in brief: as §1
# [8] = biological target: GlcNAc(a1-3)Gal(b1-4)GlcNAc
# Method in brief: as §1
# [9] = biological target: GlcNAc(a1-4)Gal(b1-3)GlcNAc
# Method in brief: as §1
# [10] = biological target: GlcNAc(a1-4)Gal(b1-4)GalNAc
# Method in brief: as §1
# [11] = biological target: GlcNAc(a1-4)Gal(b1-4)GlcNAc
# Method in brief: as §1
# [12] = biological target: GlcNAc(a1-4)Gal(b1-4)GlcNAc(b1-3)Gal(b1-4)Glc
# Method in brief: as §1
# [13] = biological target: GlcNAc(a1-4)Gal(b1-4)GlcNAc(b1-3)Gal(b1-4)GlcNAc
# Method in brief: as §1
# [14] = biological target: GlcNAc(a1-4)Gal(b1-4)GlcNAc(b1-3)Gal(b1-4)GlcNAc(b1-3)Gal(b1-4)GlcNAc
# Method in brief: as §1
# [15] = biological target: GlcNAc(a1-4)Gal(b1-4)GlcNAc(b1-3)Gal(b1-4)[Fuc(a1-3)]GlcNAc(b1-3)Gal(b1-4)[Fuc(a1-3)]GlcNAc
# Method in brief: as §1
# [16] = biological target: GlcNAc(a1-6)Gal(b1-4)GlcNAc
# Method in brief: as §1
# [17] = biological target: GlcNAc(b1-2)Gal(b1-3)GalNAc
# Method in brief: as §1
# [18] = biological target: GlcNAc(b1-2)Man(a1-3)[GlcNAc(b1-2)Man(a1-6)]Man(b1-4)GlcNAc(b1-4)GlcNAc
# Method in brief: as §1
# [19] = biological target: GlcNAc(b1-2)Man(a1-3)[GlcNAc(b1-2)Man(a1-6)]Man(b1-4)GlcNAc(b1-4)[Fuc(a1-6)]GlcNAc
# Method in brief: as §1
# [20] = biological target: GlcNAc(b1-2)Man(a1-3)[GlcNAc(b1-4)][GlcNAc(b1-2)Man(a1-6)]Man(b1-4)GlcNAc(b1-4)GlcNAc
# Method in brief: as §1
# [21] = biological target: GlcNAc(b1-2)Man(a1-3)[GlcNAc(b1-4)][GlcNAc(b1-2)Man(a1-6)]Man(b1-4)GlcNAc(b1-4)[Fuc(a1-6)]GlcNAc
# Method in brief: as §1
# [22] = biological target: GlcNAc(b1-2)[GlcNAc(b1-4)]Man(a1-3)[GlcNAc(b1-2)Man(a1-6)]Man(b1-4)GlcNAc(b1-4)GlcNAc
# Method in brief: as §1
# [23] = biological target: GlcNAc(b1-2)[GlcNAc(b1-4)]Man(a1-3)[GlcNAc(b1-4)][GlcNAc(b1-2)Man(a1-6)]Man(b1-4)GlcNAc(b1-4)GlcNAc
# Method in brief: as §1
# [24] = biological target: GlcNAc(b1-2)[GlcNAc(b1-4)]Man(a1-3)[GlcNAc(b1-4)][GlcNAc(b1-2)[GlcNAc(b1-6)]Man(a1-6)]Man(b1-4)GlcNAc(b1-4)GlcNAc
# Method in brief: as §1
# [25] = biological target: GlcNAc(b1-2)[GlcNAc(b1-4)]Man(a1-3)[GlcNAc(b1-4)][GlcNAc(b1-2)[GlcNAc(b1-6)]Man(a1-6)]Man(b1-4)GlcNAc(b1-4)[Fuc(a1-6)]GlcNAc
# Method in brief: as §1
# [26] = biological target: GlcNAc(b1-2)[GlcNAc(b1-6)]Man(a1-6)[GlcNAc(b1-2)Man(a1-3)]Man(b1-4)GlcNAc(b1-4)GlcNAc
# Method in brief: as §1
# [27] = biological target: GlcNAc(b1-2)[GlcNAc(b1-6)]Man(a1-6)[GlcNAc(b1-2)Man(a1-3)]Man(b1-4)GlcNAc(b1-4)[Fuc(a1-6)]GlcNAc
# Method in brief: as §1
# [28] = biological target: GlcNAc(b1-2)[GlcNAc(b1-6)]Man(a1-6)[GlcNAc(b1-4)][GlcNAc(b1-2)Man(a1-3)]Man(b1-4)GlcNAc(b1-4)GlcNAc
# Method in brief: as §1
# [29] = biological target: GlcNAc(b1-3)Fuc
# Method in brief: as §1
# [30] = biological target: GlcNAc(b1-3)Gal
# Method in brief: as §1
# [31] = biological target: GlcNAc(b1-3)Gal(b1-3)GalNAc
# Method in brief: as §1
# [32] = biological target: GlcNAc(b1-3)Gal(b1-4)Glc
# Method in brief: as §1
# [33] = biological target: GlcNAc(b1-3)Gal(b1-4)GlcNAc
# Method in brief: as §1
# [34] = biological target: GlcNAc(b1-3)Gal(b1-4)GlcNAc(b1-2)Man(a1-3)[GlcNAc(b1-3)Gal(b1-4)GlcNAc(b1-2)Man(a1-6)]Man(b1-4)GlcNAc(b1-4)GlcNAc
# Method in brief: as §1
# [35] = biological target: GlcNAc(b1-3)Gal(b1-4)GlcNAc(b1-2)Man(a1-3)[GlcNAc(b1-3)Gal(b1-4)GlcNAc(b1-2)Man(a1-6)]Man(b1-4)GlcNAc(b1-4)[Fuc(a1-6)]GlcNAc
# Method in brief: as §1
# [36] = biological target: GlcNAc(b1-3)Gal(b1-4)GlcNAc(b1-2)[GlcNAc(b1-3)Gal(b1-4)GlcNAc(b1-6)]Man(a1-6)[GlcNAc(b1-3)Gal(b1-4)GlcNAc(b1-2)Man(a1-3)]Man(b1-4)GlcNAc(b1-4)GlcNAc
# Method in brief: as §1
# [37] = biological target: GlcNAc(b1-3)Gal(b1-4)GlcNAc(b1-3)Gal(b1-4)GlcNAc
# Method in brief: as §1
binder,measurement,setting,value
B1,glycan array binding signal (z-score),[1],-0.657
same,glycan array binding signal (z-score),[2],-0.84
same,glycan array binding signal (z-score),[3],-0.651
same,glycan array binding signal (z-score),[4],0.119
same,glycan array binding signal (z-score),[5],-0.289
same,glycan array binding signal (z-score),[6],-0.136
same,glycan array binding signal (z-score),[7],-0.269
same,glycan array binding signal (z-score),[8],-0.55
same,glycan array binding signal (z-score),[9],-0.724
same,glycan array binding signal (z-score),[10],0.06
same,glycan array binding signal (z-score),[11],-0.461
same,glycan array binding signal (z-score),[12],-0.477
same,glycan array binding signal (z-score),[13],-0.018
same,glycan array binding signal (z-score),[14],-0.453
same,glycan array binding signal (z-score),[15],0.435
same,glycan array binding signal (z-score),[16],-0.743
same,glycan array binding signal (z-score),[17],-0.506
same,glycan array binding signal (z-score),[18],-0.373
same,glycan array binding signal (z-score),[19],-0.287
same,glycan array binding signal (z-score),[20],-0.224
same,glycan array binding signal (z-score),[21],-0.626
same,glycan array binding signal (z-score),[22],-0.31
same,glycan array binding signal (z-score),[23],-0.435
same,glycan array binding signal (z-score),[24],-0.462
same,glycan array binding signal (z-score),[25],-0.455
same,glycan array binding signal (z-score),[26],-0.647
same,glycan array binding signal (z-score),[27],-0.537
same,glycan array binding signal (z-score),[28],-0.789
same,glycan array binding signal (z-score),[29],-0.013
same,glycan array binding signal (z-score),[30],-0.753
same,glycan array binding signal (z-score),[31],-0.337
same,glycan array binding signal (z-score),[32],-0.229
same,glycan array binding signal (z-score),[33],-0.725
same,glycan array binding signal (z-score),[34],-0.752
same,glycan array binding signal (z-score),[35],0.394
same,glycan array binding signal (z-score),[36],0.885
same,glycan array binding signal (z-score),[37],-0.315

# Given with tabs: part of the list above
binder	measurement	setting	value
B1	glycan array binding signal (z-score)	[12]	-0.477
same	glycan array binding signal (z-score)	[13]	-0.018
